According to the supplement of paper PMC11732987, “Enantioselective OTUD7B fragment discovery through chemoproteomics screening and high-throughput optimisation” (Communications Chemistry, 2025):
This is one part of the list. The data scatter; read single values as rough.

The chains behind the UniProt entries cited, without tags or fusion partners. Where a name states a change or a piece, a line headed by the entry shows the natural chain unless it says otherwise. Residues count along the entry.
UniProt Q96RT7, whole entry, looked up: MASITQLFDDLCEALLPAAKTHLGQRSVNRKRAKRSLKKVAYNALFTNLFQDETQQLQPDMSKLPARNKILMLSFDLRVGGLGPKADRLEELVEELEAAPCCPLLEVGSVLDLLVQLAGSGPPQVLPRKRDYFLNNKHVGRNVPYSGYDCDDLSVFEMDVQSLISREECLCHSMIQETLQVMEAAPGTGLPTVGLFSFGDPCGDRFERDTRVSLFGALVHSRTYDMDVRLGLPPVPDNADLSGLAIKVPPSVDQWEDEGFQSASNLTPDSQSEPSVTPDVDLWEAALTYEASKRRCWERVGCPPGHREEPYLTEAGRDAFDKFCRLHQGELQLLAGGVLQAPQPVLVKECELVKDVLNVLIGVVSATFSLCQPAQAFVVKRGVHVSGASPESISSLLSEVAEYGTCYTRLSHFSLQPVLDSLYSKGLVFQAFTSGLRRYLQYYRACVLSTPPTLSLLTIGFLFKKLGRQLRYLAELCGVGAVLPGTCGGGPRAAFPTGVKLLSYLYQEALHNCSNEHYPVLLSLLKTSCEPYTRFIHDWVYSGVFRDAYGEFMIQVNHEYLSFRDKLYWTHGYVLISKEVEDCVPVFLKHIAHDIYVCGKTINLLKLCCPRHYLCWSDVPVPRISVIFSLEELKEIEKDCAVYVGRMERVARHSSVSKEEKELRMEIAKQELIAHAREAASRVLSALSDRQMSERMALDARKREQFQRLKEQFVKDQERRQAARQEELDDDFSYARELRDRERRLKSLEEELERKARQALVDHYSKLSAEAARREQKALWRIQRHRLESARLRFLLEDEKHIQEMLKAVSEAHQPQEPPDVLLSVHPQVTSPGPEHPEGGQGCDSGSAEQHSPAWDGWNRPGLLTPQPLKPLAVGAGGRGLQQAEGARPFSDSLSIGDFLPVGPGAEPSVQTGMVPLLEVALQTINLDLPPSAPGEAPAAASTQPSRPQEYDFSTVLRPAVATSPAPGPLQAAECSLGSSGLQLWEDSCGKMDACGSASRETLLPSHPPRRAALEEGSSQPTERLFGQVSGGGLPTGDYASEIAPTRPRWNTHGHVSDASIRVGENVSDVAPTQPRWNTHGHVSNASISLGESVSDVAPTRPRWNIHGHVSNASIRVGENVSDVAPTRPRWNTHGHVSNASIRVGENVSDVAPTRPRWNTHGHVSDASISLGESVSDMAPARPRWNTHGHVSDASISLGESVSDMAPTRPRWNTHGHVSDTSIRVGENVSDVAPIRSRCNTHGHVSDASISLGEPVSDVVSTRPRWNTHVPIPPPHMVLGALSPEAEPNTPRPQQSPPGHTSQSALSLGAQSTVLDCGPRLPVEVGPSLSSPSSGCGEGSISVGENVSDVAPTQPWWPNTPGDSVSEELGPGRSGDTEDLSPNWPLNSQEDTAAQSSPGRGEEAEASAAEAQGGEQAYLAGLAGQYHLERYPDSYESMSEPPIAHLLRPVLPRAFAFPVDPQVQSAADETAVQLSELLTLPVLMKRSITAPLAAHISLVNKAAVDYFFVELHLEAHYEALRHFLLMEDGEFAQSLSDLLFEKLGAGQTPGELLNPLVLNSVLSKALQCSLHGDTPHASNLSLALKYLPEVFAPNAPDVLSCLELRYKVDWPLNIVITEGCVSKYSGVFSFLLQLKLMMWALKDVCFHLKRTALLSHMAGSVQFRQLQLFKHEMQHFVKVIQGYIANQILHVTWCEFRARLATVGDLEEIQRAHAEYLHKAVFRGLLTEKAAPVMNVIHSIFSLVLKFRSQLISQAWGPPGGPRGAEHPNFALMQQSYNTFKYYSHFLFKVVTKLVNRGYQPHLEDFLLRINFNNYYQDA
UniProt Q7Z2T5, 303-324: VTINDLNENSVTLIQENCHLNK
UniProt Q8IZ69, 267-286: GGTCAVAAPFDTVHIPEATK
UniProt O95155, 141-164: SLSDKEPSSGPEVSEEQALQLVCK
UniProt Q9Y4A5, whole entry, looked up: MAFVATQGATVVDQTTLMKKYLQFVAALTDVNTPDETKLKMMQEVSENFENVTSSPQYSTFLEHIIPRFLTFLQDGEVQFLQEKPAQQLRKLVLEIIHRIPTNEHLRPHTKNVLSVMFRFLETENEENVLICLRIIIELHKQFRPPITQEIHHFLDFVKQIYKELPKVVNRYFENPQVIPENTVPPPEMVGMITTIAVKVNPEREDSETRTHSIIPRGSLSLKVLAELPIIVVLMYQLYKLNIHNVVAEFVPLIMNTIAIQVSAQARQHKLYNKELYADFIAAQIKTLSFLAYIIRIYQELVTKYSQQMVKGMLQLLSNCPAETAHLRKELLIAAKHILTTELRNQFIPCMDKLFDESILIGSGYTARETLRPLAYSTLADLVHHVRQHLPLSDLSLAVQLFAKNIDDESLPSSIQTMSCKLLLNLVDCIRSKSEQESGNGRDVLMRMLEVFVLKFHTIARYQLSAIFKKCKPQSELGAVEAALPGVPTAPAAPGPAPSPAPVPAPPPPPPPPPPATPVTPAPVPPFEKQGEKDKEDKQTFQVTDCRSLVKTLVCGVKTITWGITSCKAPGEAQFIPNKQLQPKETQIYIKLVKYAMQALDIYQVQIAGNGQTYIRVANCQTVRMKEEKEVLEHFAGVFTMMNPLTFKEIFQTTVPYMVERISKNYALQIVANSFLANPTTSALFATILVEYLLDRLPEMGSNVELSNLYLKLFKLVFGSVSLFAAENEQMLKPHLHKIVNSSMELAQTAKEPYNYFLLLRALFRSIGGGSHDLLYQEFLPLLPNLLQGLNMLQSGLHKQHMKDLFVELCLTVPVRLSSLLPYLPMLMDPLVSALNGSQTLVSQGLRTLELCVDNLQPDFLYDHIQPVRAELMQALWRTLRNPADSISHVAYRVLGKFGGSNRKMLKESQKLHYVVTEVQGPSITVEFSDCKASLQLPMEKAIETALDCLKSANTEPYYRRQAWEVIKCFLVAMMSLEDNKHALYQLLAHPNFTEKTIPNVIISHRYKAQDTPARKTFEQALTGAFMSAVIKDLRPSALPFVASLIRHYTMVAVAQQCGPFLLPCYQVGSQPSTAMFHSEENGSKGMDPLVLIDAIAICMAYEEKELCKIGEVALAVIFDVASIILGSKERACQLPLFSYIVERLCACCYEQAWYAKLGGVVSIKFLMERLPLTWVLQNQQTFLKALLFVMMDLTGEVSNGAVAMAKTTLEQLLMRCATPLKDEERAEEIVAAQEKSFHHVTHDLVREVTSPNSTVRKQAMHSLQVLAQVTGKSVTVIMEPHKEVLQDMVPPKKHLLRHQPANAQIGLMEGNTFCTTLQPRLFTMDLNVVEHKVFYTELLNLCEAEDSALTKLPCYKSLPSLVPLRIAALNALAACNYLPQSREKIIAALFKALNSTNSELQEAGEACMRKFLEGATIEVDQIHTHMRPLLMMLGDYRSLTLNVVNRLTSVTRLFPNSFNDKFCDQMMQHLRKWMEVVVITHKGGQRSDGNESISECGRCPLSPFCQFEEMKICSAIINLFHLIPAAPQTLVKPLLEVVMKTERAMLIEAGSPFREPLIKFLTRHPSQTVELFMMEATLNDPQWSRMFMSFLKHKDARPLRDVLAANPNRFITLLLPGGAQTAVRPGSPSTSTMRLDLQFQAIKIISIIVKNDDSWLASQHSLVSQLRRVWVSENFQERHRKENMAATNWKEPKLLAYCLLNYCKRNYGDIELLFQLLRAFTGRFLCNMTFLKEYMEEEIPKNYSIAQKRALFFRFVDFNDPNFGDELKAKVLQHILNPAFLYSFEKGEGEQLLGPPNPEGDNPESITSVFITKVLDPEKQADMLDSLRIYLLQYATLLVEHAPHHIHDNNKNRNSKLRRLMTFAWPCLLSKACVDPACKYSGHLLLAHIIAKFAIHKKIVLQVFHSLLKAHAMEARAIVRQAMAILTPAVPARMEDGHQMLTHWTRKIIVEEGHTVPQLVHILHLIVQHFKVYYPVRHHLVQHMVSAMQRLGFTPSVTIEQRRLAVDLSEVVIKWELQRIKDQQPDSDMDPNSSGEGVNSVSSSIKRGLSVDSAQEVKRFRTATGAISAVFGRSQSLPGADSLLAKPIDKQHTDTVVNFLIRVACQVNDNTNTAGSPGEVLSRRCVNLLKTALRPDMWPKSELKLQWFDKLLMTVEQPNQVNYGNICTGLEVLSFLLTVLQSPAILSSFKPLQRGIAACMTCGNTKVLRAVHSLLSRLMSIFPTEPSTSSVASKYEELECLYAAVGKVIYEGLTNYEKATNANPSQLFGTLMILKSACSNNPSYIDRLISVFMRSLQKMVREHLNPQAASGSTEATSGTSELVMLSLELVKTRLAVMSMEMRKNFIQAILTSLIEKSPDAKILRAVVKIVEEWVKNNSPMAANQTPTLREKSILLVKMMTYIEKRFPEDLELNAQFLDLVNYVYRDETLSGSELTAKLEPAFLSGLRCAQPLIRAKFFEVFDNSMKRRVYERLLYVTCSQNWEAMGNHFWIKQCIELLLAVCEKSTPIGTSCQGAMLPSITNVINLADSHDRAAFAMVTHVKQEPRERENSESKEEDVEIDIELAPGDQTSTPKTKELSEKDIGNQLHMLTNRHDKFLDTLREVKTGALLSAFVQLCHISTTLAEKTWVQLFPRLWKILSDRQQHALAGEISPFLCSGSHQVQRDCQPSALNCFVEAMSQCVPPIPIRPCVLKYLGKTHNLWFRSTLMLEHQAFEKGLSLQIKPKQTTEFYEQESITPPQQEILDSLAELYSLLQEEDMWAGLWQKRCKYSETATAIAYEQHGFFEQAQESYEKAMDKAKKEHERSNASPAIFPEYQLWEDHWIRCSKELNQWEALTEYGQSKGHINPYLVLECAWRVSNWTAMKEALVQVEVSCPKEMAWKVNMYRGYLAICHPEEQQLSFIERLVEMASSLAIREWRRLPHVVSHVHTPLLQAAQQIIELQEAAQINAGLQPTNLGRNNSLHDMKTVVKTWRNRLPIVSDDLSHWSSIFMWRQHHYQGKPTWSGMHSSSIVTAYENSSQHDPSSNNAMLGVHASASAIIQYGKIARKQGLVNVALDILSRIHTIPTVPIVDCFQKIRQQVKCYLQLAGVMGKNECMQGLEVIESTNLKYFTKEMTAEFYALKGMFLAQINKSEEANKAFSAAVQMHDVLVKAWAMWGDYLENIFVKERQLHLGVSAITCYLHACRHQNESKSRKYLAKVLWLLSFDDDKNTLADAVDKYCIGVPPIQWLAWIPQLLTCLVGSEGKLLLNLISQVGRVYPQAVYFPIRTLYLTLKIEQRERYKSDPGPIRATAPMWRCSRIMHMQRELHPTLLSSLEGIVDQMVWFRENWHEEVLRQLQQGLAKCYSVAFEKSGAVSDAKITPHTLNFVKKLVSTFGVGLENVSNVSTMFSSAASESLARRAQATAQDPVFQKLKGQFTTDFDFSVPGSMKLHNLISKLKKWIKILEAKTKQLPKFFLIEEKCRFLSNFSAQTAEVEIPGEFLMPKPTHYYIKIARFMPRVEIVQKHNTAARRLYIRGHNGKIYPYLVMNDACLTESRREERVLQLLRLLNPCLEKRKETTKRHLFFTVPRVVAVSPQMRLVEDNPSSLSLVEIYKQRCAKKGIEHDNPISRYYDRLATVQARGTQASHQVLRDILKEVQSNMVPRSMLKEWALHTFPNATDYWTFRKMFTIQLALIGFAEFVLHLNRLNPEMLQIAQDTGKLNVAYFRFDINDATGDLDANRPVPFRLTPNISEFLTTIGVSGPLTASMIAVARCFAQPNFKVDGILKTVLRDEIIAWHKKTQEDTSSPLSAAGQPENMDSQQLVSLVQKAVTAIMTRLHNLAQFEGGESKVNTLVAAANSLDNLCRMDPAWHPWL
UniProt Q9NUP7: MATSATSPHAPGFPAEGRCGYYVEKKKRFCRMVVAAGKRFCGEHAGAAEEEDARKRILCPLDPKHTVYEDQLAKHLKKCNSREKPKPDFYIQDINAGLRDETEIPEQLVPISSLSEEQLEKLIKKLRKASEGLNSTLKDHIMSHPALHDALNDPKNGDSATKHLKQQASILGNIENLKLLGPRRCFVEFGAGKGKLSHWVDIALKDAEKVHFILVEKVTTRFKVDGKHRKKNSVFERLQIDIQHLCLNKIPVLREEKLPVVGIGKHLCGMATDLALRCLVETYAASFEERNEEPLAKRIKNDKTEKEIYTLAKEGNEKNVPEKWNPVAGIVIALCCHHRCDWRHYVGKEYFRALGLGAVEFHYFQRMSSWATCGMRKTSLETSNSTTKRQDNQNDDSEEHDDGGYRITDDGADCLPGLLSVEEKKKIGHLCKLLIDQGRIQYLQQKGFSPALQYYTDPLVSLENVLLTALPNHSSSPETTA
UniProt Q8WWH5: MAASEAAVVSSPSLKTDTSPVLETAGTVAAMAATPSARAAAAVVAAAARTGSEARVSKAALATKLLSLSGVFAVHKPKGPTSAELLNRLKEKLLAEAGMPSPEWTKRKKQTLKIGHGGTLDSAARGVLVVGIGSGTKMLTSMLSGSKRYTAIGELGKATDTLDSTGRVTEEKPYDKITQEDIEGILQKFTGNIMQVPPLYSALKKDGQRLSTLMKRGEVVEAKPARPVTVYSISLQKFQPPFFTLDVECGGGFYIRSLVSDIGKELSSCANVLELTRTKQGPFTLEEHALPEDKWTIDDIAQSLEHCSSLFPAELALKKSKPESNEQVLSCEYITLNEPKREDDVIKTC

Compound: ClCC(=O)N[C@@H]1CCCc2ccccc12
Assay: log2 mean competition ratio of IA-DTB cysteine labelling (DMSO/compound) (log2 ratio); higher = stronger cysteine engagement by compound
Details: 50 µM; treatment time: 4 h; cell line lysate: HEK293T
Protocol: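 IA-DTB competitive cysteine chemoproteomics in HEK293T RIPA lysate. Lysates were treated with compound 29 or 30 at 50 or 200 µM for 4 h, then IA-DTB (500 µM, 1 h), trypsin-digested, NeutrAvidin-enriched and analysed by diaPASEF. Competition ratio = intensity DMSO / intensity compound (n=4 treated, n=64 DMSO); binding: mean log2 CR ≥ 1 and p ≤ 0.05 plus QC filters. Target is the cysteine site.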

Target | log2 mean competition ratio
TSTD2 C324 (UniProt Q5T7W7) | -0.11
TUBGCP6 C598 (UniProt Q96RT7) | -0.223
UBA6 C17 | -0.234
TRMT1L C320 (UniProt Q7Z2T5) | -0.0966
TTC17 C114 (UniProt Q96AE7) | 0.573
TSNAX C257 (UniProt Q99598) | 0.0938
TRMT2A C270 (UniProt Q8IZ69) | 0.296
TSEN54 C338 (UniProt Q7Z6J9) | 0.0222
TTC3 C109 (UniProt P53804) | 0.128
TTC21B C914 (UniProt Q7Z4L5) | 0.019
TRPT1 C147 (UniProt Q86TN4) | -0.025
TUT4 C20 (UniProt Q5TAX3) | -0.0759
TRMU C222 (UniProt O75648) | -0.0997
UBN1 C467 (UniProt Q9NPG3) | 0.0054
UBE4B C163 (UniProt O95155) | -0.247
TRMT2A C486 (UniProt Q8IZ69) | 0.254
UBE2O C370 | 0.0383
UBE2Q1 C157 (UniProt Q7Z7E8) | -0.137
UBN1 C765 (UniProt Q9NPG3) | -0.145

Looked up above.
log2 mean competition ratio, TSTD2 C324 (UniProt Q5T7W7) is entered as -0.11
log2 mean competition ratio, TTC17 C114 (UniProt Q96AE7) is entered as 0.573
log2 mean competition ratio, TRMT1L C320 (UniProt Q7Z2T5) is entered as -0.0966

Carrying on:

Target | log2 mean competition ratio
TYW1B;TYW1 C169;(C215) | 0.0388
TSFM C64 (UniProt P43897) | 0.0559
UBR4 C3414 (UniProt Q5T4S7) | 0.134
TRRAP C620 (UniProt Q9Y4A5) | -0.0581
TSR2 C114 (UniProt Q969E8) | -0.153
TXLNG C480 (UniProt Q9NUQ3) | 0.0654
UBE4B C829 (UniProt O95155) | 0.0806
TRRAP C3849 (UniProt Q9Y4A5) | -0.237
UBR4 C1900 (UniProt Q5T4S7) | 0.499
TRMT13 C59 (UniProt Q9NUP7) | -0.0999
TTC33 C55 (UniProt Q6PID6) | -0.211
TRRAP C2876 (UniProt Q9Y4A5) | 0.0163
TUBA3C;TUBA3D C347;(C347) | 0.424
TSEN54 C58 (UniProt Q7Z6J9) | 0.0441
TRRAP C2279 (UniProt Q9Y4A5) | 0.255
TRUB1 C269 (UniProt Q8WWH5) | 0.0984
TRPS1 C587 (UniProt Q9UHF7) | 0.396
TRMT1L C730 (UniProt Q7Z2T5) | -0.279
UACA C125 (UniProt Q9BZF9) | 0.123
